Paper PMC5617480 (Oncotarget, 2017)

Test system: BEL-7404 cells
Experiment: Uptake and distribution of Pt in BEL-7404 cells (ICP-MS)
Format: cell-based, human
Conditions: BEL-7404, 10 μM, 8.0 h

Substance | distribution of Pt in cellular fractions | Pt concentration in treated cells, times higher than cisplatin group | Pt concentration in treated cells, times higher than complex 4 group | Pt concentration in treated cells, times higher than complex 5 group
cis-[PtCl2(R-(+)-FOA)] [complex 5] | mainly accumulated in cytoplasmic proteins and other cellular fractions |  |  | 
cis-[PtCl2(R/S-(±)-FOA)] [complex 4] | mainly accumulated in cytoplasmic proteins and other cellular fractions |  |  | 
cis-[PtCl2(S-(–)-FOA)] [complex 6] | highly accumulated in nuclear fraction | 2.5 times | 1.7 times | 2.3 times
